In the supplement of paper PMC11732987, “Enantioselective OTUD7B fragment discovery through chemoproteomics screening and high-throughput optimisation” (Communications Chemistry, 2025):
The other results are listed elsewhere or left out. The data scatter; read single values as rough.

By UniProt entry, the sequences of proteins in these tests, tags left out. Where a name states a change or a piece, a line headed by the entry shows the natural chain unless it says otherwise. Residues count along the entry.
UniProt Q9BQG0: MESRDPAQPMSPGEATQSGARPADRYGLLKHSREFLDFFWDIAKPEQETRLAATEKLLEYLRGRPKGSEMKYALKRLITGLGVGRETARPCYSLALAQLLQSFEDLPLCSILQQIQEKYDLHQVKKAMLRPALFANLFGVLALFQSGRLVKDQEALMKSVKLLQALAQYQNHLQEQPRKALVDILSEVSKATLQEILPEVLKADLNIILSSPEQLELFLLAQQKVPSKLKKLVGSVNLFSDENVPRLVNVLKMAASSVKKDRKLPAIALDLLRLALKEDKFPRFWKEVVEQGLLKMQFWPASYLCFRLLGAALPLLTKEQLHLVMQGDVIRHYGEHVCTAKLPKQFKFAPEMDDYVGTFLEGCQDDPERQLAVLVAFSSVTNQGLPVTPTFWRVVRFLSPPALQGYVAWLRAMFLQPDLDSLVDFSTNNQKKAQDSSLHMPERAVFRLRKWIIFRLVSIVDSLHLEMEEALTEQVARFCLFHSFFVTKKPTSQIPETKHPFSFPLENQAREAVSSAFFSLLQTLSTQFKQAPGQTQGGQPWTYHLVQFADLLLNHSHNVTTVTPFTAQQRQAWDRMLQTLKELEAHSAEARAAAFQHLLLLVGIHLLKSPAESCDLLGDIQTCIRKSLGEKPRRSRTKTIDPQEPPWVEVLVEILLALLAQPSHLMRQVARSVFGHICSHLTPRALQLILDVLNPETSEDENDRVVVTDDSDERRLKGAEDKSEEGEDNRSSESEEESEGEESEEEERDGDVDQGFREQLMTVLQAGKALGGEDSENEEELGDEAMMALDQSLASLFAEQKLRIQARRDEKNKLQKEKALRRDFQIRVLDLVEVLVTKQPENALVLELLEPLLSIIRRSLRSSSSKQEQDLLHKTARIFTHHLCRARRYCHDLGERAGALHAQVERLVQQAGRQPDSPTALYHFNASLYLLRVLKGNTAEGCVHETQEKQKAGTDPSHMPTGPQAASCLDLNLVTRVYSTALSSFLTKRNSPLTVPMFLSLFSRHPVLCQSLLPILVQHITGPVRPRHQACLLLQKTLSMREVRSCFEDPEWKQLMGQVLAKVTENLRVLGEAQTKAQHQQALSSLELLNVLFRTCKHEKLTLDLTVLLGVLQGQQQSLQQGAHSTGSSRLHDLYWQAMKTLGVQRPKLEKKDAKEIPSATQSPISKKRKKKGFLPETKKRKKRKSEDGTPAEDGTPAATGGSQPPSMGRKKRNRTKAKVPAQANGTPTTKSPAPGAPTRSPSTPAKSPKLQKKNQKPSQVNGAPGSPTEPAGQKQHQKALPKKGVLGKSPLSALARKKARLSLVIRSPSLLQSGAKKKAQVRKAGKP
UniProt Q92614: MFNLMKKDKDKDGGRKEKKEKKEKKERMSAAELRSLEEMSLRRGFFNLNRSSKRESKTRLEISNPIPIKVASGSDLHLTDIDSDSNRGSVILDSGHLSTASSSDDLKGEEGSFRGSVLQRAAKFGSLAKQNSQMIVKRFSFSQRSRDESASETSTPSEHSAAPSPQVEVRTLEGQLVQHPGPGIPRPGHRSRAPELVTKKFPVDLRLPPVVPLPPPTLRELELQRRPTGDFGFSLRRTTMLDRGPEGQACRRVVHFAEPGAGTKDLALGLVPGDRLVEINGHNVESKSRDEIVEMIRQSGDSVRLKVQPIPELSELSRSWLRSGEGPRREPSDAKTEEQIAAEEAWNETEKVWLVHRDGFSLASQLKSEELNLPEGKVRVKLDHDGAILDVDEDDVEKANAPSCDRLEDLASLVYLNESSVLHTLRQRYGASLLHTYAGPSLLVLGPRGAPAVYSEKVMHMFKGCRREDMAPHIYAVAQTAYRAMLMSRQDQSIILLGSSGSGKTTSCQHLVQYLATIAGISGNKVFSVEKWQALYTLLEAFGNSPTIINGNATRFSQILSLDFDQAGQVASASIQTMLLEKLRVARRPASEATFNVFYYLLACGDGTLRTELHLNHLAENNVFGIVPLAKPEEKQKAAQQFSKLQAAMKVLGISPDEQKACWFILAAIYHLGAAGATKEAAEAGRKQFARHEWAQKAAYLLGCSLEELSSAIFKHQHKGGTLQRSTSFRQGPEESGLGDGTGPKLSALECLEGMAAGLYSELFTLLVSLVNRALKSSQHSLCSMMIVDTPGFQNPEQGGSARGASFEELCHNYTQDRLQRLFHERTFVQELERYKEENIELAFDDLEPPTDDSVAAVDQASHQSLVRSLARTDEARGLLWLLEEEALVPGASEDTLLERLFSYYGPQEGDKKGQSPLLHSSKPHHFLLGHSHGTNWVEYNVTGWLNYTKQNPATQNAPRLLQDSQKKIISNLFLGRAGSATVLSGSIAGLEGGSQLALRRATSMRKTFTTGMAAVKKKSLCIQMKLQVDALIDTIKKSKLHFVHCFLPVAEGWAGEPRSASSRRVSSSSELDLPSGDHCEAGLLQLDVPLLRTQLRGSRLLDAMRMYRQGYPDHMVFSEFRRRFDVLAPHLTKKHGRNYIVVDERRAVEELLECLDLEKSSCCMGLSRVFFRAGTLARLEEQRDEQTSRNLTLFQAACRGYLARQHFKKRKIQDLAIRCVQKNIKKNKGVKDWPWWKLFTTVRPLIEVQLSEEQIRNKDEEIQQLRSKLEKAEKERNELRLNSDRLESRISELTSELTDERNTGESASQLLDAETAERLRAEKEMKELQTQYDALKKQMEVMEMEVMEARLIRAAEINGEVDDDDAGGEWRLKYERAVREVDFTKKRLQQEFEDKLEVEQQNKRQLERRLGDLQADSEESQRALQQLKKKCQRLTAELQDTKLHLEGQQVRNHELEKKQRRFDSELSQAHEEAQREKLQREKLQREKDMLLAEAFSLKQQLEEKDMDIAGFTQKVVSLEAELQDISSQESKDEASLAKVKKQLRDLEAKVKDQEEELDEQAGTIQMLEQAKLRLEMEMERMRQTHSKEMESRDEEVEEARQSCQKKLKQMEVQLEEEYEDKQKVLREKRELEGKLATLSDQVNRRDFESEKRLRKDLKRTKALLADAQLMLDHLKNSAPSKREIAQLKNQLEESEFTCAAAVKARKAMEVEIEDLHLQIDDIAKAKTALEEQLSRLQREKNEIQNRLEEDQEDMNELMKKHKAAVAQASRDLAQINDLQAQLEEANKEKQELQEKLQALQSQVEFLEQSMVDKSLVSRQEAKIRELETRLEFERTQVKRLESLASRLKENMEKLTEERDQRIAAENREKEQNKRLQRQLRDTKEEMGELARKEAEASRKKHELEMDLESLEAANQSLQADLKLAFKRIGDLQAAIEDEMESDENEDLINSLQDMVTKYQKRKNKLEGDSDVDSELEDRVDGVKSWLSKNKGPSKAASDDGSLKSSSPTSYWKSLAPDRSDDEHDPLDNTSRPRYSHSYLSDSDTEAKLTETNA
UniProt P54920: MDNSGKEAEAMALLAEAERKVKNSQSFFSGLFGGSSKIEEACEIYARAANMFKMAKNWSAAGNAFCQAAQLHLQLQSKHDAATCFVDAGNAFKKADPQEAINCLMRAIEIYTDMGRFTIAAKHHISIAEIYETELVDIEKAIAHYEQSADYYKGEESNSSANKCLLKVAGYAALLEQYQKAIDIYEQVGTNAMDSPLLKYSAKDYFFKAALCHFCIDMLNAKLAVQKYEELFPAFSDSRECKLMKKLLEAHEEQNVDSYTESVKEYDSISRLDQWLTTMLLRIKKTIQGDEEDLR
UniProt Q13459: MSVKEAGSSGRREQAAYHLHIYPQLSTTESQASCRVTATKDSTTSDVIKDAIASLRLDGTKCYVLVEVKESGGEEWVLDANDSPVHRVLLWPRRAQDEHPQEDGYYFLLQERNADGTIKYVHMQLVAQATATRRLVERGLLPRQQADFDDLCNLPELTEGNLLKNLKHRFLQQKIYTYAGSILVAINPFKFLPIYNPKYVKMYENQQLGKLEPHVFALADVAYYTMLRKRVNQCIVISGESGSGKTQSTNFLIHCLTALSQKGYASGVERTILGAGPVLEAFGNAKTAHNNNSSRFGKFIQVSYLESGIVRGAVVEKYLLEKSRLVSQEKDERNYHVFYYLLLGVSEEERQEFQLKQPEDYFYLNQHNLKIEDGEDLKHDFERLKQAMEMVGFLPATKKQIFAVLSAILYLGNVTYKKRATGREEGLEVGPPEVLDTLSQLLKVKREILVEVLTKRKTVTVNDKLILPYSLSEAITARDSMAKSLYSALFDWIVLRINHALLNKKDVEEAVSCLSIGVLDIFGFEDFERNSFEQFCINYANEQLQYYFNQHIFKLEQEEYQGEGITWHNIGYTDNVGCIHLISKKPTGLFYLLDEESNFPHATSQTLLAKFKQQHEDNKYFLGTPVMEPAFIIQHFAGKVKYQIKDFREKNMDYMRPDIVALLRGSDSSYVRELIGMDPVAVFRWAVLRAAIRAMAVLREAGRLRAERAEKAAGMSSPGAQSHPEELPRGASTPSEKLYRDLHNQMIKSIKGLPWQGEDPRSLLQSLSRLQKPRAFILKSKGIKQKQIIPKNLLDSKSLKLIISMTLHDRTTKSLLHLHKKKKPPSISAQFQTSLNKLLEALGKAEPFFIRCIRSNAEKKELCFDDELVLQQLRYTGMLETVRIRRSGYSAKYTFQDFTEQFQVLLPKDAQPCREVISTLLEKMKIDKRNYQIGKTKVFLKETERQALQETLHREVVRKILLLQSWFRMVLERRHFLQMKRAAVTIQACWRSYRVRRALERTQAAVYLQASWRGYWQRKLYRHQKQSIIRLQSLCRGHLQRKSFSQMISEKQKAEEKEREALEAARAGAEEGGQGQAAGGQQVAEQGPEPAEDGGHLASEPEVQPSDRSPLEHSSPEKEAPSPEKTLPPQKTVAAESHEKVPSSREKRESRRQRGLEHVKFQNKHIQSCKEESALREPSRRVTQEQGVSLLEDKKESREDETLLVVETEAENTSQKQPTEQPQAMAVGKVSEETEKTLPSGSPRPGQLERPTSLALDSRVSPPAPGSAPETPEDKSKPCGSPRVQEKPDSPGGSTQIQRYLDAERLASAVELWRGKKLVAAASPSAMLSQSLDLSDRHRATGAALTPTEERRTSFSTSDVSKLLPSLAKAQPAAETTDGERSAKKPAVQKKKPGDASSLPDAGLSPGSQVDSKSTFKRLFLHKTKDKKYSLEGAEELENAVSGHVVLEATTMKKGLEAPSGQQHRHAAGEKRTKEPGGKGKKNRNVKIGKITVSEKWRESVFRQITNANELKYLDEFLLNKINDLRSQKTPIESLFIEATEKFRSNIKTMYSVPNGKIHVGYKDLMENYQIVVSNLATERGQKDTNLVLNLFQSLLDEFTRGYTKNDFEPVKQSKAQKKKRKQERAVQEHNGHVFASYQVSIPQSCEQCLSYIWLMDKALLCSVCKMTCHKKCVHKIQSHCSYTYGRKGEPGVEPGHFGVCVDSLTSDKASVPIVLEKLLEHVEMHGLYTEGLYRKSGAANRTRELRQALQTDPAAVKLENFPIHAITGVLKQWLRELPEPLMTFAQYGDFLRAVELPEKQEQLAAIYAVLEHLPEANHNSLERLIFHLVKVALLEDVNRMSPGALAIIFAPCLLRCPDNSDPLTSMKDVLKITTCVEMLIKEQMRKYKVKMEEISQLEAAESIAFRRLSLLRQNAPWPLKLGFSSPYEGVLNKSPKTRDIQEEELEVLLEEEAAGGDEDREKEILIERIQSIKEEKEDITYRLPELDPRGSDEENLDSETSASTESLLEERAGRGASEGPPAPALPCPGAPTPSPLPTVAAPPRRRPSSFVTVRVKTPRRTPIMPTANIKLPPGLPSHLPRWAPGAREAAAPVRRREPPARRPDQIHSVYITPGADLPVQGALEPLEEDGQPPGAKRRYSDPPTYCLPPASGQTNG
UniProt P53602, 2-22: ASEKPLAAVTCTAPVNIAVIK
UniProt Q6XQN6: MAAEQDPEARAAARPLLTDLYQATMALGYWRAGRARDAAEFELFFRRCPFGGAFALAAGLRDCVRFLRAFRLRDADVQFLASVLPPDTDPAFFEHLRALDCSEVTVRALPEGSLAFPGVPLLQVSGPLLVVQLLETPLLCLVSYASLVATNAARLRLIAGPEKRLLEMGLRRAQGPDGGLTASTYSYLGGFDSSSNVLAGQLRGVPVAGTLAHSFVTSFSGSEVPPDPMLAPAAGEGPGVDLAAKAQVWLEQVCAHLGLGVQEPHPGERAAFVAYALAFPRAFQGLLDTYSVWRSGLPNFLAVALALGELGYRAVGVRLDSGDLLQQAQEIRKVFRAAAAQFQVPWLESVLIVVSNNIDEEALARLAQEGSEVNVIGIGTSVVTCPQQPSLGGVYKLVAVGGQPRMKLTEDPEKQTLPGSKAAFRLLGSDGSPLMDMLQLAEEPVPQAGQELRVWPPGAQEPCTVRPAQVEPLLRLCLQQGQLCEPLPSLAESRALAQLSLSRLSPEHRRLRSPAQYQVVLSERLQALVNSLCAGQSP

Compound: ClCC(=O)N[C@@H]1CCCc2ccccc12
Experiment: log2 mean competition ratio of IA-DTB cysteine labelling (DMSO/compound) (log2 ratio); higher = stronger cysteine engagement by compound
Conditions: 50 µM; treatment time: 4 h; cell line lysate: HEK293T
Procedure: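 IA-DTB competitive cysteine chemoproteomics in HEK293T RIPA lysate. Lysates were treated with compound 29 or 30 at 50 or 200 µM for 4 h, then IA-DTB (500 µM, 1 h), trypsin-digested, NeutrAvidin-enriched and analysed by diaPASEF. Competition ratio = intensity DMSO / intensity compound (n=4 treated, n=64 DMSO); binding: mean log2 CR ≥ 1 and p ≤ 0.05 plus QC filters. Target is the cysteine site.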

Target	log2 mean competition ratio
MYBBP1A C338 (UniProt Q9BQG0)	0.396
MYO18A C811 (UniProt Q92614)	-0.215
MVK C101 (UniProt Q03426)	-0.154
MTIF2 C290 (UniProt P46199)	-0.203
MTHFD1L C814	-0.209
MTHFD1L C61	-0.0139
MYBBP1A_(C614,C614,C623,C623) (UniProt Q9BQG0)	0.058
MTMR4 C698 (UniProt Q9NYA4)	-0.209
NAPA C42 (UniProt P54920)	0.108
MRPS7 C191 (UniProt Q9Y2R9)	-0.0941
MSL1 C221 (UniProt Q68DK7)	0.593
MYL6 C2	-0.19
MYO9B C1857 (UniProt Q13459)	-0.0896
MTRF1L C274 (UniProt Q9UGC7)	-0.403
MTMR2 C635 (UniProt Q13614)	-0.262
MT-ND3 C39 (UniProt Q8IVS2)	0.409
MVD C12 (UniProt P53602)	-0.132
NAPRT C101 (UniProt Q6XQN6)	-0.338
MYO5A C1711 (UniProt Q9Y4I1)	0.0267
MRPS18A C108 (UniProt Q9NVS2)	0.131

Same assay, conditions: 200 µM; treatment time: 4 h; cell line lysate: HEK293T

Target	log2 mean competition ratio
MYBBP1A C338 (UniProt Q9BQG0)	-0.17
MYO18A C811 (UniProt Q92614)	0.116
MVK C101 (UniProt Q03426)	-0.0324
MTIF2 C290 (UniProt P46199)	0.274
MTHFD1L C814	-0.0544
MTHFD1L C61	0.0654
MYBBP1A_(C614,C614,C623,C623) (UniProt Q9BQG0)	-0.128
MTMR4 C698 (UniProt Q9NYA4)	-0.253
NAPA C42 (UniProt P54920)	-0.133
MRPS7 C191 (UniProt Q9Y2R9)	-0.0118
MSL1 C221 (UniProt Q68DK7)	0.359
MYL6 C2	-0.181
MYO9B C1857 (UniProt Q13459)	0.343
MTRF1L C274 (UniProt Q9UGC7)	0.029
MTMR2 C635 (UniProt Q13614)	-0.271
MT-ND3 C39 (UniProt Q8IVS2)	-0.0813
MVD C12 (UniProt P53602)	-0.414
NAPRT C101 (UniProt Q6XQN6)	-0.112
MYO5A C1711 (UniProt Q9Y4I1)	0.405
MRPS18A C108 (UniProt Q9NVS2)	0.0125
